Reference: publication doi:10.1101/2020.11.11.378711

Protein sequences, listed by entry. Tags and fused reporters are not part of them.
UniProt Q15005: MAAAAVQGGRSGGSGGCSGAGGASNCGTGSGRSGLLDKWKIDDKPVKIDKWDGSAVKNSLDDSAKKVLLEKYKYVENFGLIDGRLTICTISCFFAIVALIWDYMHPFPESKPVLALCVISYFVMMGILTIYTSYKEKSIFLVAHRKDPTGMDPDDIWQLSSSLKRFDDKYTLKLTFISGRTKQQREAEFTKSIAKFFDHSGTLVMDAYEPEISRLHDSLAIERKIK

Target: T1, SEC11C-FLAG (SEC11C, SPC21, with a C-terminal FLAG tag) (human) (UniProt Q9BY50)
T1 sequence: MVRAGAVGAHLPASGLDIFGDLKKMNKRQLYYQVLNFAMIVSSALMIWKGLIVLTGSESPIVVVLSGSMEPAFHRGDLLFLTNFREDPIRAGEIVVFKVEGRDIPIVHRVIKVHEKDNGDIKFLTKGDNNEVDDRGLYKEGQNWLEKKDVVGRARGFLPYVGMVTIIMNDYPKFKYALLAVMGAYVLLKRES
Assay: affinity purification with mass spectrometry

Question: Which binding does the source give for “SPC25 (SPCS2), accessory subunit of the human signal peptidase complex (from UniProt Q15005 1-226)” here?
Answer: Its binding is “binds”.

Results are given in words; binding and its absence hold for the method and conditions named. In cells and extracts the contact can be indirect. Here binding means that the protein was enriched with, or labelled near, the bait; the list need not be complete. Where a sequence is shown, tags or fusion partners need not be part of it.
